This experiment deals with T1, Dentin sialoprotein (DSP), the NH2-terminal fragment of dentin sialophosphoprotein (DSPP) (mouse (endogenous in mouse odontoblastic cells and molars)) (UniProt P97399).
T1 sequence: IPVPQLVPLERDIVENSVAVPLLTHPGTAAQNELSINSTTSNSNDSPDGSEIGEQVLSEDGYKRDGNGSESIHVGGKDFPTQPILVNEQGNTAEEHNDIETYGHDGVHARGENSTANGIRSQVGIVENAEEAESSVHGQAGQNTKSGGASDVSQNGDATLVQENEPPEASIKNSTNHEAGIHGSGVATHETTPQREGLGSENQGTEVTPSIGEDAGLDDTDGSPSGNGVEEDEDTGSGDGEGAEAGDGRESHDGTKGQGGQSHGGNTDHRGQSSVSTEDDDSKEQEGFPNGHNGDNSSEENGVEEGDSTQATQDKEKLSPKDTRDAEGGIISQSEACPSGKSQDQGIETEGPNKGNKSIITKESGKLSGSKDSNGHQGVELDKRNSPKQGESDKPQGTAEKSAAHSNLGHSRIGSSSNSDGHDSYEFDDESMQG
Description: proximity ligation; in situ Duolink PLA on fixed mouse odontoblastic cells on coverslips and on tissue sections of PN2 mouse mandibles; rabbit anti-DSP with goat anti-MMP9 or goat anti-MMP2, overnight at 4°C; red punctate signals.

Chains of the proteins cited; added tags and fusions are not shown. Lines headed by an entry give the natural chain unless they say otherwise; changes in a name come on top.
UniProt P33434: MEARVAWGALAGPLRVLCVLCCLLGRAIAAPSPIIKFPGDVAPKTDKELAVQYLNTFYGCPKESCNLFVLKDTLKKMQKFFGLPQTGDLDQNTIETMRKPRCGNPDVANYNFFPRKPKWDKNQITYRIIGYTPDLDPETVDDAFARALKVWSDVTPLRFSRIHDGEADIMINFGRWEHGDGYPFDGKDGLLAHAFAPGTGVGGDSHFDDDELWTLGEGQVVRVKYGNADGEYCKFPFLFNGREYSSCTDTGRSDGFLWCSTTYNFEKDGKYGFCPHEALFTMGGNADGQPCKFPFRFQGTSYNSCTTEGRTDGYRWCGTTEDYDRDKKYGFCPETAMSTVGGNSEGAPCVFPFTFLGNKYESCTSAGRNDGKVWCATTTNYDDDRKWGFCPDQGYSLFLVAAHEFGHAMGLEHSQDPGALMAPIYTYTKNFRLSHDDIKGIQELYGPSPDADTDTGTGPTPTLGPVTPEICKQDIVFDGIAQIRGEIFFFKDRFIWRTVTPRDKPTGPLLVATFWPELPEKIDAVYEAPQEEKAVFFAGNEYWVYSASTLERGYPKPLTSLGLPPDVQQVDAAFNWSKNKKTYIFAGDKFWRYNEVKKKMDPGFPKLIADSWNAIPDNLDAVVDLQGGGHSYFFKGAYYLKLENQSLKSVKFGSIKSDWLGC

Results are given in words; binding and its absence hold for the method and conditions named. In cells and extracts the contact can be indirect. Binding can be weak; no strength is given.

As to “Matrix metalloproteinase 2 (MMP2) (from UniProt P33434) (enzyme)”, the binding result is reported as “binds”.

Values taken from PMC7330055.
